No constants are given. Whether binding was seen depends on the method and setting. In cells and extracts the contact can be indirect. Here binding means that the protein was enriched with, or labelled near, the bait; the list need not be complete.
Target: Sequestosome 1 (SQSTM1)/p62 (human (endogenous in A549)) (UniProt Q13501)
Test: affinity purification with mass spectrometry

RNF166 (from UniProt Q96A37 1-237)
binding: binds
